From article PMC11110392, “A first-in-class inhibitor of HSP110 to potentiate XPO1-targeted therapy in primary mediastinal B-cell lymphoma and classical Hodgkin lymphoma” (Journal of Experimental & Clinical Cancer Research : CR, 2024)
These are yes or no findings as the source states them, for the method shown. Binding seen in cells or lysates may run through a third protein. Some binding calls cover weakened binding; strength is not graded here.

Chains of the proteins cited; added tags and fusions are not shown. Lines headed by an entry give the natural chain unless they say otherwise; changes in a name come on top.
UniProt O14980: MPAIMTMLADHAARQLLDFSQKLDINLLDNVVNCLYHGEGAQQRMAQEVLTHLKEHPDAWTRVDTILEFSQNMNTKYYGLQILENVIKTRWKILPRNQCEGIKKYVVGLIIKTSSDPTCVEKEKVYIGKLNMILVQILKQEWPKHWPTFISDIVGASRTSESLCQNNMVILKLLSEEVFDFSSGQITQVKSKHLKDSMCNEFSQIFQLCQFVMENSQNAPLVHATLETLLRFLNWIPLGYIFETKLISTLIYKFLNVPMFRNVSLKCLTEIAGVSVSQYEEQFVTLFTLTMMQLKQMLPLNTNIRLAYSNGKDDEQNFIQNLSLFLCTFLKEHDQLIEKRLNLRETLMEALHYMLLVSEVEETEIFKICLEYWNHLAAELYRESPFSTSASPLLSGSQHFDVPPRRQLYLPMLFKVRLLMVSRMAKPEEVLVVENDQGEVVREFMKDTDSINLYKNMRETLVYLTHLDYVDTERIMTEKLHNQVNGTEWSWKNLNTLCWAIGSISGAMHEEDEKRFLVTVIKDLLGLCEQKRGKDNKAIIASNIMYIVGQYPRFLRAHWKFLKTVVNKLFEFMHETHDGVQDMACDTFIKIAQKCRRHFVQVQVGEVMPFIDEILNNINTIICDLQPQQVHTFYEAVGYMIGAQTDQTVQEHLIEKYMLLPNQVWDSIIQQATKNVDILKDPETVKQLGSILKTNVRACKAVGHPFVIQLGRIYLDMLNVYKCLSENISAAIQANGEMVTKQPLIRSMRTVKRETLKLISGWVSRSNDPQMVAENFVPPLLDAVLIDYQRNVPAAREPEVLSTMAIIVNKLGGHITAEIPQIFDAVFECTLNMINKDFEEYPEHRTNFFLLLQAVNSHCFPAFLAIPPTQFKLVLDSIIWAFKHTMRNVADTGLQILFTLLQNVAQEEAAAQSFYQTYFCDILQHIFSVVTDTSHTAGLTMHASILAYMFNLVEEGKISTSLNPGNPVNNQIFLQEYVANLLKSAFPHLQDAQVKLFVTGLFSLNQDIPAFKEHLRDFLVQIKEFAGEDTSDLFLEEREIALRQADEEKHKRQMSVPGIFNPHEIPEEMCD
UniProt Q92598: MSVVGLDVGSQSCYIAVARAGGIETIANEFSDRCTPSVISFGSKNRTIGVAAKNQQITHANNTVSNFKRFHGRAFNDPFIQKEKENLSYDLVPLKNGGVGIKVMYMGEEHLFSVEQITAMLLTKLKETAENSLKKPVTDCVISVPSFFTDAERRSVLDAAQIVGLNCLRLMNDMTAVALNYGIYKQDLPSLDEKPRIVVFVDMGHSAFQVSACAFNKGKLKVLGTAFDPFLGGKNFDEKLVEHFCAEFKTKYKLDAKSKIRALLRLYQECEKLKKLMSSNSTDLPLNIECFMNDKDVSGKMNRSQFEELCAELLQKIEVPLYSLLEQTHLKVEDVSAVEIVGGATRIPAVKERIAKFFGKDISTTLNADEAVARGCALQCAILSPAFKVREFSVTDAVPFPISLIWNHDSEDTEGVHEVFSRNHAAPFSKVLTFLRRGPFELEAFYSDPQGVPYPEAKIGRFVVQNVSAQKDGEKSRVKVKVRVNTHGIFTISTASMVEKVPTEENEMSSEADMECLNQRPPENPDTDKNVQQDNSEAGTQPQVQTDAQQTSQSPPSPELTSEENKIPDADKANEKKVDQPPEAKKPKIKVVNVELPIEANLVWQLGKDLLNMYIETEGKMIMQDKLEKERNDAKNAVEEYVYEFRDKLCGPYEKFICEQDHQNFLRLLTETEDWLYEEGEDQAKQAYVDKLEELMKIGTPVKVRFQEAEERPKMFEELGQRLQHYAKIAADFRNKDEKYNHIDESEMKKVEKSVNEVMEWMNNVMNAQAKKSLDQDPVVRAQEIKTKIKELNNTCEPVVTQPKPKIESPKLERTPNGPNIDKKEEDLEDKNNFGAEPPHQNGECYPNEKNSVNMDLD

Key:
XPO1 E571K-mCherry = XPO1 E571K-mCherry (UniProt O14980); assay: co-IP; IP of mCherry from HEK293S6 cells transfected with HSP110-GFP and XPO1 WT-mCherry or XPO1 E571K-mCherry; blots with anti-GFP and anti-mCherry; unrelated antibody as IP control
XPO1wt-mCherry = XPO1wt-mCherry (UniProt O14980); assay: as above

- binding (XPO1 E571K-mCherry): binds
- binding (XPO1wt-mCherry): binds
Substance: HSP110-GFP (from UniProt Q92598 1-858)
